These are yes or no findings as the source states them, for the method shown. Some results given as binding are weak or reduced against the parent protein; the word gives no strength.
B1: LSD phage (T7 phage displaying the peptide …, SEQ ID NO:4) (peptide)
peptide: CLSDGKRKC
B2: LSD peptide (…, SEQ ID NO:4), synthetic (peptide)
peptide: CLSDGKRKC

Chains of the proteins cited; added tags and fusions are not shown.
UniProt P61073: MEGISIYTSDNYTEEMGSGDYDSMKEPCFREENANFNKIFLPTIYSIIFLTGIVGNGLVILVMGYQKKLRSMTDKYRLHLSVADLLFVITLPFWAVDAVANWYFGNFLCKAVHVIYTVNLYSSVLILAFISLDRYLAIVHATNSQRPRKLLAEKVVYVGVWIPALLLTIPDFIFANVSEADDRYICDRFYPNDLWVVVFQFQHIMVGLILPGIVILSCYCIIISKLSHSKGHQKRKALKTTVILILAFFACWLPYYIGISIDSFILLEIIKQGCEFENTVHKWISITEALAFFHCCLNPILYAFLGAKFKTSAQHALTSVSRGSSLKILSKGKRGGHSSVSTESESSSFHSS

Experiments:
[1] = target: chemokine receptor CXCR4, expressed on transfected 293T cells (UniProt P61073); test: phage binding to CXCR4-transfected 293T cells; bound phage rescued and titrated
[2] = target: chemokine receptor CXCR4, expressed on transfected 293T cells (UniProt P61073); test: competitive phage binding assay on CXCR4-transfected 293T cells; free peptide against LSD phage; binding of the free peptide is inferred from the inhibition

Row | Binder | binding [1] | binding [2]
1 | B1 | binds | –
2 | B2 | – | binds

From patent publication US20110212162A1 (SANFORD BURNHAM MEDICAL RESEARCH INSTITUTE, published 2011)
